In PMC10471174 one finds binding data, which are given here for one substance.

Protein sequences, listed by entry. Tags and fused reporters are not part of them.
UniProt Q03164: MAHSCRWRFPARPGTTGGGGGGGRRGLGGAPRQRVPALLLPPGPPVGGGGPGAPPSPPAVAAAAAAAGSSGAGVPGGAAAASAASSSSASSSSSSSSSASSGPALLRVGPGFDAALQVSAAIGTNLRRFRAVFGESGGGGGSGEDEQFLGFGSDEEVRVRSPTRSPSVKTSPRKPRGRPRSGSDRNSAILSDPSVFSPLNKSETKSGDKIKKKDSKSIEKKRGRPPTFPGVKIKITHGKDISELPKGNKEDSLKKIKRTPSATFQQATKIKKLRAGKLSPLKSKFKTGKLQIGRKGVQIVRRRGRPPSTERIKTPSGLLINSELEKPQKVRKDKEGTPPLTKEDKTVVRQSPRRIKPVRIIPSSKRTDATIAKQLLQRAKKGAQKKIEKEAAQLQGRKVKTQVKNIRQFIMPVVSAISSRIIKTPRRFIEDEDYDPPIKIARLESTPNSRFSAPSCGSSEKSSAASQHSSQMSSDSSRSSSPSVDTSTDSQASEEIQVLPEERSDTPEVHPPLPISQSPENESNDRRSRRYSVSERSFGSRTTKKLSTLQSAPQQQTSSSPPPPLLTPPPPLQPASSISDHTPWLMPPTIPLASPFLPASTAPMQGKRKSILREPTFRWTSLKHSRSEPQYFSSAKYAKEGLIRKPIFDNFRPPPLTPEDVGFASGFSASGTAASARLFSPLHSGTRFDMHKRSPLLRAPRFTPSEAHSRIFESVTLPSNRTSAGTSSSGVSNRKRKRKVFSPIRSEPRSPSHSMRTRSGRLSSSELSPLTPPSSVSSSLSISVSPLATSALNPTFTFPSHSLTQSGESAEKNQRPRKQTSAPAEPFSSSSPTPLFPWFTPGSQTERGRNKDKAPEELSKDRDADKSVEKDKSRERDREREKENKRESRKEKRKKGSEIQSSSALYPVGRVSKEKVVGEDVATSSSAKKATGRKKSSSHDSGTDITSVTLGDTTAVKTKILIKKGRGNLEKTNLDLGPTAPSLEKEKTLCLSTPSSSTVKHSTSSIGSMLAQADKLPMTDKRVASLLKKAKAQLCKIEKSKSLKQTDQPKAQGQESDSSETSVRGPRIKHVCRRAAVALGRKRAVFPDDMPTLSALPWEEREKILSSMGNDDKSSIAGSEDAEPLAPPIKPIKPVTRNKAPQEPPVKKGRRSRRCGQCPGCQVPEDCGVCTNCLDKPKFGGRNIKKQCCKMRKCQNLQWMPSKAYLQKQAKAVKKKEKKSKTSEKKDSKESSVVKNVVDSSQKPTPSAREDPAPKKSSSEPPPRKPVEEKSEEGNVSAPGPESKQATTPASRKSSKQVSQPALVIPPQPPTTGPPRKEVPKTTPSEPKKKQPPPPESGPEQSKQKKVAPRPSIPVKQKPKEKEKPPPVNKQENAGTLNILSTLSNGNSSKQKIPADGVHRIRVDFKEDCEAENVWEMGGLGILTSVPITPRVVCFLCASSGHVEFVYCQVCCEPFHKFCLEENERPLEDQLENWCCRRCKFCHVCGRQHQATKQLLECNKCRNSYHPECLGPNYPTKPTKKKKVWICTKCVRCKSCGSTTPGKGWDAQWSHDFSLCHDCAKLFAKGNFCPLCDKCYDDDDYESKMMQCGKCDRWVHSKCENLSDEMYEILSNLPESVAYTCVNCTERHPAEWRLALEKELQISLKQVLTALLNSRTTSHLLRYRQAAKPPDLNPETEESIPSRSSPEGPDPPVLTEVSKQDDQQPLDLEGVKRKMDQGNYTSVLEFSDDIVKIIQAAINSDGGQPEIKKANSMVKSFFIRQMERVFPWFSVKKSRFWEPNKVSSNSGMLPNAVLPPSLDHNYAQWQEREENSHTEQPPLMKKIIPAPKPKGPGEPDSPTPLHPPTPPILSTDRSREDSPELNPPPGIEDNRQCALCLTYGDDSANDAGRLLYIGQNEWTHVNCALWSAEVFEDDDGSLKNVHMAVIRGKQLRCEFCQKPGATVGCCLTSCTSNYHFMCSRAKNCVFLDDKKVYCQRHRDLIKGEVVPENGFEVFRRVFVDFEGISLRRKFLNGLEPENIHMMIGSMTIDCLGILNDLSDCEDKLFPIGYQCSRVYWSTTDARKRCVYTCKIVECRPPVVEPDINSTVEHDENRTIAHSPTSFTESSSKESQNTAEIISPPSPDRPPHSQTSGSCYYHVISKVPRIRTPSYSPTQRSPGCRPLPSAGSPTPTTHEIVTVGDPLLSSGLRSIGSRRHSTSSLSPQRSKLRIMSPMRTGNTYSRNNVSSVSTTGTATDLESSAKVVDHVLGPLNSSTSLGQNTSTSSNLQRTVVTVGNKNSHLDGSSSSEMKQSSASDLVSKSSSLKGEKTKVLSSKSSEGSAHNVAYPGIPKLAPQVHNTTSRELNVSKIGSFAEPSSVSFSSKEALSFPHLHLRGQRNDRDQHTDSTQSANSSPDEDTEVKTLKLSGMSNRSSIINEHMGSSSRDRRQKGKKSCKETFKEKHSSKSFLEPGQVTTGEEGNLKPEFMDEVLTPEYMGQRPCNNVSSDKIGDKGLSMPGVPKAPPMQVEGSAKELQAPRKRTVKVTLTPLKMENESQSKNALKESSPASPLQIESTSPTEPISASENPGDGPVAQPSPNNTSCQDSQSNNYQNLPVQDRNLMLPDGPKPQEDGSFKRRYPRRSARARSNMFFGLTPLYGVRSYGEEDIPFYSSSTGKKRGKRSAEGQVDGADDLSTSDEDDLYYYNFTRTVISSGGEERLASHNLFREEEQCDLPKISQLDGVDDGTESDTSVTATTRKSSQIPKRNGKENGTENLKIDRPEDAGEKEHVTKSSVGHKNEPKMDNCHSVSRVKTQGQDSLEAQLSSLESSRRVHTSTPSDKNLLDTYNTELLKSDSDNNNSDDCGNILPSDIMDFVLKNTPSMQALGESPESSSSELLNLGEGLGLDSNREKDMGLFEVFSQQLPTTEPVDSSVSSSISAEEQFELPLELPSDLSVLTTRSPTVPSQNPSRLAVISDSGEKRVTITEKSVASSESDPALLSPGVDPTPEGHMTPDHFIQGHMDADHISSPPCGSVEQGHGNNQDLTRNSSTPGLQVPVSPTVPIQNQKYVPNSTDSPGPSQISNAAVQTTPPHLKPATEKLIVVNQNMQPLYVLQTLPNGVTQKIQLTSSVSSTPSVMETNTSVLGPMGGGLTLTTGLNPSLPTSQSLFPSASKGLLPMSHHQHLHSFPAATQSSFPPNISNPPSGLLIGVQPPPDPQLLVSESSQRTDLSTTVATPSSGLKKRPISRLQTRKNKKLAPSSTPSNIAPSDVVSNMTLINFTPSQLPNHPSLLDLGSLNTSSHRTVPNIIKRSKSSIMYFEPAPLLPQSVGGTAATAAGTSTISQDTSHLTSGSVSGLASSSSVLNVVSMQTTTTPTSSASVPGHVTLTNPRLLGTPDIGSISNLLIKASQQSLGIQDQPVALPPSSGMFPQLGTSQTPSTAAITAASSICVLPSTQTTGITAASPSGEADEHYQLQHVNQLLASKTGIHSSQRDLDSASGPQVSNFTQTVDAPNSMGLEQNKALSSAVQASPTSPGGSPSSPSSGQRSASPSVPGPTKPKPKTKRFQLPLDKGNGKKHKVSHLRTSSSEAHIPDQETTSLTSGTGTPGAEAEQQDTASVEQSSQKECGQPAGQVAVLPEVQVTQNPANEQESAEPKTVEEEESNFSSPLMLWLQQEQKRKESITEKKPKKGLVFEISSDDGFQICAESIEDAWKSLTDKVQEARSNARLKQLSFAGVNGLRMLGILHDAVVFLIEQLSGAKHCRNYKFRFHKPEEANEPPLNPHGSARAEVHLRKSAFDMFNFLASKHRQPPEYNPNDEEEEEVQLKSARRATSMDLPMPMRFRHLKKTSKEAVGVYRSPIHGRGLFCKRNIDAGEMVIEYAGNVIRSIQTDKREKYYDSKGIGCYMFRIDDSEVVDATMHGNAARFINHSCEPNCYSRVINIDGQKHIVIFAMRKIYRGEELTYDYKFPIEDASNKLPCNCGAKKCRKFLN

No constants are given. Whether binding was seen depends on the method and setting. In cells and extracts the contact can be indirect. These calls come from enrichment with a bait or labelling near it, and not all partners need be listed. Where a sequence is shown, tags or fusion partners need not be part of it.

The assay concerns the target T1, GST-SAP30 fusion protein (human) (UniProt O75446).
T1 sequence: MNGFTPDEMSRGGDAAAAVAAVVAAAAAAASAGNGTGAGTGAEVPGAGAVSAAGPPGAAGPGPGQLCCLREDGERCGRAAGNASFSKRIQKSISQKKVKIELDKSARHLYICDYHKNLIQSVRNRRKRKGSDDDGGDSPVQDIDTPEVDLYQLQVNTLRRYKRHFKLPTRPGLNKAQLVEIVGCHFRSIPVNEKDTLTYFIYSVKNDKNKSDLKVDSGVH
As to the kind of experiment: affinity purification with mass spectrometry; GST-SAP30 immobilized on glutathione-Sepharose beads, incubated with nuclear lysates of MDA-MB-231 cells for 6 hours at 4°C; 3 independent experiments; only the target purified.

“MLL1 (KMT2A), endogenous in MDA-MB-231 and SUM159 cells (from UniProt Q03164 1-3969) (enzyme)”: the binding result is on record as “binds”.
